This passage reports binding signal results from article PMC7819943, “Rice protein-binding microarrays: a tool to detect cis-acting elements near promoter regions in rice”.

The list shows a part of the results.

The target of this assay is T1, OsSMF1 (Oryza sativa, UniProt Q6ZLB0 1-436).
T1 sequence: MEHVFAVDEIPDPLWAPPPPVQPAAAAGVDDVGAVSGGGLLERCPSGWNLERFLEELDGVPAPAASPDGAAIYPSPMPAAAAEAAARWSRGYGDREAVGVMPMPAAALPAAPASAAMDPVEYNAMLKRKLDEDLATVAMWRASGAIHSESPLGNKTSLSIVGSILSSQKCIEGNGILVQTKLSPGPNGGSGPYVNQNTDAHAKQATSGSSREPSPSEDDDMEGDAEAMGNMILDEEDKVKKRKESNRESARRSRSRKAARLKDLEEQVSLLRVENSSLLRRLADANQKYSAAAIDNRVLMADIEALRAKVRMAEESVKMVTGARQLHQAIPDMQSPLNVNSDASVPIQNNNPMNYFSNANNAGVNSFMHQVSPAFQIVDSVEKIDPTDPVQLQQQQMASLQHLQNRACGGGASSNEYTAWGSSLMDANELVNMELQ
In words: protein-binding microarray (RPBM); PBS, 2% BSA, 51.3 ng/ul salmon testes DNA, 50 uM zinc acetate, 200 nM TF, 25 C, 1 h; high values mean tight binding. The conditions noted are these: protein: recombinant; tags: N-terminal polyhistidine and DsRed monomer fusion (pET32a); chain copies: 2; label: CyDye5-dUTP incorporated in the synthesized complementary strand; 3' TTTTT single-stranded linker to array surface; dsDNA, one strand shown. In a few lines:
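Binding signal is reported as fluorescence intensity per feature (arbitrary units) from an Axon 4000B scanner. Incubation used 200 nM of each Ni–NTA-purified, N-terminally polyhistidine- and DsRed-fused transcription factor from E. coli BL21-CodonPlus on a double-stranded custom Agilent array for 1 h at 25 °C, with 50 µM zinc acetate in the buffer, followed by washing.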
For “GAGAGAGAGGAAGAGTGGAAGAGTATGACACGTGGGTCCCCGGAGTCACCTAGTGCAG”, the binding signal was 7920 fluorescence intensity (a.u.).

Turning to “TTGTAGCAAGATCCCAATCATAATAGATGATGGCAAATGCCGGAGTCACCTAGTGCAG”, the binding signal was 17100 fluorescence intensity (a.u.).

Regarding “TTTAGTAACGGGCCGAACTAGTCACGCGTGCTGGCCACACCGGAGTCACCTAGTGCAG”, the binding signal is 4830 fluorescence intensity (a.u.).

Consider “CTTAATTAATATATATTTGTGAAGACCTAACTTCGAGTCCCGGAGTCACCTAGTGCAG”, for which the binding signal was 3460 fluorescence intensity (a.u.).

For “GTTCCTGAAAGAAAACAAAACAAAAGAGCCACCTGGAACGCGGAGTCACCTAGTGCAG”, the binding signal is 3190 fluorescence intensity (a.u.).

Take “AATAGGGAAGCCCCACGTGTGTTAATTGTCATCGATTTCCCGGAGTCACCTAGTGCAG”: the binding signal is 7780 fluorescence intensity (a.u.).

In the case of “AGTTACCCCTACAAGTTAAGGATGCTGTCATCTCATCCTTCGGAGTCACCTAGTGCAG”, the binding signal was 3390 fluorescence intensity (a.u.).

With “GGCATTGATATCTGCTGGCCCATTCGGTTGACGGGTGACTCGGAGTCACCTAGTGCAG”, the binding signal was 3150 fluorescence intensity (a.u.).

With “GTCCCTCGCGCCGTCACCACCTGCTCTGTCTCCTCTCCTTCGGAGTCACCTAGTGCAG”, the binding signal is 4060 fluorescence intensity (a.u.).

For “TTTGTGAAGTGATATATTACATATTAACCTAGAAGTCCACCGGAGTCACCTAGTGCAG”, the binding signal was 26800 fluorescence intensity (a.u.).

Take “CCTTGTTGATATATTTTAAGGTGTATGGTTTCTATTTTAACGGAGTCACCTAGTGCAG”: the binding signal was 3650 fluorescence intensity (a.u.).

Turning to “TTAGATCGGGGAATAAGGTGGTAACAGGGCAGTGCGGTCCCGGAGTCACCTAGTGCAG”, the binding signal was 3500 fluorescence intensity (a.u.).

On to “CTCGTCCGCGACCACGACCACGACCACGACACGACGAGCTCGGAGTCACCTAGTGCAG”, for which the binding signal was 3320 fluorescence intensity (a.u.).

“CTGTAATTTATTTTAATATCATCAAGACACATCAGCAACACGGAGTCACCTAGTGCAG”: the binding signal was 9520 fluorescence intensity (a.u.).

As for “TTATTAGCAACCACCGTCACATATAAATTAATATGTGCCGCGGAGTCACCTAGTGCAG”, the binding signal was 3710 fluorescence intensity (a.u.).

As to “TAAACGCAAATTCTATATCACAACCACGTAAGTTTAGTAGCGGAGTCACCTAGTGCAG”, the binding signal is 3870 fluorescence intensity (a.u.).

For “CATCTCCCTCCACCTCGACCCGCCGCCGGTCTCCTCTTGTCGGAGTCACCTAGTGCAG”, the binding signal is 4200 fluorescence intensity (a.u.).

Regarding “ATTCTTGAATGGCTGCTAGCTTCTCCATCAAAAGAGGCCACGGAGTCACCTAGTGCAG”, the binding signal was 24600 fluorescence intensity (a.u.).

With “GTCCAGCTCGGCCGCGGCGGCTACGTCCACCGCCGTCGCCCGGAGTCACCTAGTGCAG”, the binding signal was 19700 fluorescence intensity (a.u.).

As to “ATATTATGAAATGGCACGTAGCATAGTGGTTGCAGTGATCCGGAGTCACCTAGTGCAG”, the binding signal was 4620 fluorescence intensity (a.u.).

With “TTGGTTTTGGAAGTTGAGTAACGCGTCATTTAGGTATTGCCGGAGTCACCTAGTGCAG”, the binding signal is 5530 fluorescence intensity (a.u.).

Consider “TGTGCACGTCAGTCTGACGCCTCAATCCTTCCCGTGCACACGGAGTCACCTAGTGCAG”, for which the binding signal was 8700 fluorescence intensity (a.u.).

For “CCTCCACGATTCGCTCCAGCGCCATGTGACTAGACCGAGCCGGAGTCACCTAGTGCAG”, the binding signal was 5700 fluorescence intensity (a.u.).

“GCAGATAATTGACTCCCCTGGCATTGACATGGCCTTCCCACGGAGTCACCTAGTGCAG”: the binding signal was 6140 fluorescence intensity (a.u.).

Consider “TGATGGATTAGAGTTTACATTGCGTGGATGCAAGCATAGACGGAGTCACCTAGTGCAG”, for which the binding signal was 3640 fluorescence intensity (a.u.).

For the sequence “GGCAACAACGGCCTCCACCGCCATCACTCCGGCACCCTCACGGAGTCACCTAGTGCAG”, the binding signal was 52200 fluorescence intensity (a.u.).

In the case of “TCCTTCCTACCCACGGCCGACTCCCCTCCTCGTCACCACGCGGAGTCACCTAGTGCAG”, the binding signal is 4400 fluorescence intensity (a.u.).

For the sequence “CAAAGCGCATCTGAGGAGGTAGGCCCCACCAATGACATGTCGGAGTCACCTAGTGCAG”, the binding signal is 3650 fluorescence intensity (a.u.).

For “CTCCCAGCCTTTTGCTGATCGGTGGGCCTAGTTGCCCGAGCGGAGTCACCTAGTGCAG”, the binding signal is 15500 fluorescence intensity (a.u.).

Regarding “AGCAGCAGAGCGTGCCACACTGCCACGCACACAAGCACAACGGAGTCACCTAGTGCAG”, the binding signal is 6160 fluorescence intensity (a.u.).

In the case of “CTTGTATAGCTGAGCCGTGGCAAGCAGACCCAACACCTGACGGAGTCACCTAGTGCAG”, the binding signal is 3980 fluorescence intensity (a.u.).

On to “GGGCGTCGGTGATGTGCCAGTGGAAGACATTGAGCTTGTTCGGAGTCACCTAGTGCAG”, for which the binding signal is 3360 fluorescence intensity (a.u.).

As for “CCCAGCCACCGCCGGCGAAATCCCGGAAGACGTCACACCACGGAGTCACCTAGTGCAG”, the binding signal is 5090 fluorescence intensity (a.u.).

With “AATACCTGATGTGACACGCCAAAACTTTACACCCCTGGATCGGAGTCACCTAGTGCAG”, the binding signal was 4210 fluorescence intensity (a.u.).

For “CACTCTCTCTCCCCATGCCACCAATCTTCGAACGGGCTGACGGAGTCACCTAGTGCAG”, the binding signal was 3490 fluorescence intensity (a.u.).

With “TAACTGATTTGACTCGTGCGTACACGCATCGCAGTGACAACGGAGTCACCTAGTGCAG”, the binding signal was 3430 fluorescence intensity (a.u.).

Turning to “AGGTCCCAAATTGACACATCCCCTCTAGAATCCTACGTATCGGAGTCACCTAGTGCAG”, the binding signal is 3150 fluorescence intensity (a.u.).

For “ATTCGTGCCGGGACACGTGTCACGCAGGGAAGTGAAGTCCCGGAGTCACCTAGTGCAG”, the binding signal is 14800 fluorescence intensity (a.u.).

With “GGTTGAACTGAATCATATCAAAGCCAGGTCAACACAGAAACGGAGTCACCTAGTGCAG”, the binding signal was 3810 fluorescence intensity (a.u.).

As to “AGAAGCGCGCCGAGGAGGCCCGCTCGTTCAACCGCGCCGCCGGAGTCACCTAGTGCAG”, the binding signal was 65500 fluorescence intensity (a.u.).

Take “TTAGATGTGAAAATTTCGGCCACGTCTCTCCCTATACATACGGAGTCACCTAGTGCAG”: the binding signal was 4800 fluorescence intensity (a.u.).

For the sequence “CCCCACAGCGCAGTGTCCCACGCGGCCAGCACGCACTCTCCGGAGTCACCTAGTGCAG”, the binding signal was 3260 fluorescence intensity (a.u.).
